# Assay results taken from PubChem BioAssay (NCATS).
# Protein sequences, listed by entry. Tags and fused reporters are not part of them. Lines headed by an entry give the natural chain unless they say otherwise; changes in a name come on top.
# UniProt P03372, whole entry, looked up: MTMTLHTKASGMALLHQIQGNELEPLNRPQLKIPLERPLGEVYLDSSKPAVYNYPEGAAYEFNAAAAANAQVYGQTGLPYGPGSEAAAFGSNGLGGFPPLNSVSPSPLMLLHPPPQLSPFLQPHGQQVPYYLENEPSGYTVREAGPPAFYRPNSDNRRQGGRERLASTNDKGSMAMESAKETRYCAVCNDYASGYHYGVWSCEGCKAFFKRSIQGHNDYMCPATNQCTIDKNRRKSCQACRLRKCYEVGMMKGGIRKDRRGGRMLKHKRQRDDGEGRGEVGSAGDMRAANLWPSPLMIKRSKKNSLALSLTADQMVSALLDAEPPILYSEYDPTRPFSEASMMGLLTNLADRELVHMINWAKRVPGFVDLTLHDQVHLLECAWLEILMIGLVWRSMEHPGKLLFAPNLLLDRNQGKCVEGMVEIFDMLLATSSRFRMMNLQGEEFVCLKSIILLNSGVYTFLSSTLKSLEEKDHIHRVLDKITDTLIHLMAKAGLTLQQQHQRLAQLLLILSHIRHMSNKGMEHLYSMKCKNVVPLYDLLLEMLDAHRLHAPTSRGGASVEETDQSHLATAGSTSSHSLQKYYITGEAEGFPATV
# UniProt P19793: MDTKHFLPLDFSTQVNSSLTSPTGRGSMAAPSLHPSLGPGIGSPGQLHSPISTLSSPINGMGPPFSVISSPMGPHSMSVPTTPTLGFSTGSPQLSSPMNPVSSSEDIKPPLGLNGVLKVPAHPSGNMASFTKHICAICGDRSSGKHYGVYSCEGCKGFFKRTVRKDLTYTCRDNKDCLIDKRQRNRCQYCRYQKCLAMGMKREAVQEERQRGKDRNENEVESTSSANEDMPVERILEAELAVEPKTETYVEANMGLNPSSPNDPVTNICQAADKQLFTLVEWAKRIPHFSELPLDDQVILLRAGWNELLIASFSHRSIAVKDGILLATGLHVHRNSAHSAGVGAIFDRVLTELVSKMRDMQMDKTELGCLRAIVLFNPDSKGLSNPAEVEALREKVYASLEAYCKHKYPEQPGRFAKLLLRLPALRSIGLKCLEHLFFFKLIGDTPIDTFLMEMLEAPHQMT
# Inconclusive results, whose numbers are uncertain, are shown with a selection of clear calls. For some of these results: Potencies of inconclusive entries are doubtful fits and often do not repeat. For some of these results: A note “side channel” means that the fit belongs to a control or component signal, not to the main read-out. Calls of active or inactive are those of the source. Unless noted, calls follow the shape of the dose curve; as a rule, active = well fitted curve in the direction sought with a large enough effect; inconclusive = small, poorly fitted or top-dose-only effect, or another doubt; inactive = no such curve, though single readings can be large; an effect the other way counts as inactive or inconclusive.
# What was measured:
# [1] = Cell Viability - LYMP1-003 - Assay at 24 hr (AID 963); also: potency is read from the fitted curve at half-maximal effect
# Method in brief: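 CellTiter-Glo luminescence (intracellular ATP) read after 24 hr, 37 C compound exposure of 2500 LYMP1-003 human lymphoblastoid cells/well in complete medium; qHTS concentration series; AC50 via standard Hill equation.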
# [2] = Cell Viability - LYMP2-004 (AID 966); also: potency is read from the fitted curve at half-maximal effect; nearly all actives have a fitted effect of over 65% in size
# Method in brief: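 Luminescent ATP read-out (CellTiter-Glo, 30 min RT) after 24 hr compound exposure at 37 C; 2500 lymphoblastoid cells/well, complete medium. Decrease in ATP = cytotoxicity; AC50 from standard Hill model.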
# [3] = Cell Viability - LYMP2-009 (AID 968); also: potency is read from the fitted curve at half-maximal effect; nearly all actives have a fitted effect of over 55% in size
# [4] = Cell Viability - LYMP2-011 (AID 969);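 also: potency is read from the fitted curve at half-maximal effect; cells exposed to compound for 24 hours; nearly all actives have a fitted effect of over 60% in size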
# Method in brief: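 Luminescent ATP read-out (CellTiter-Glo, 30 min RT) after 24 hr compound exposure at 37 C in human lymphoblastoid cells, 2500 cells/well. Decreasing ATP indicates cytotoxicity; AC50 from standard Hill fit.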
# [5] = Cell Viability - LYMP2-015 (AID 971); also: potency is read from the fitted curve at half-maximal effect; nearly all actives have a fitted effect of over 55% in size
# Method in brief: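 qHTS cytotoxicity: 2500 cells/well, 5 hr 37 C, compound 24 hr 37 C, CellTiter-Glo 30 min RT, luminescence. Loss of ATP = toxicity; AC50 via standard Hill fit.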
# [6] = Cell Viability - LYMP2-017 (AID 972);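 also: potency is read from the fitted curve at half-maximal effect; cells exposed to compound for 24 hours at 37 °C; nearly all actives have a fitted effect of over 55% in size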
# Method in brief: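 Luminescent ATP read-out (CellTiter-Glo, 30 min RT) reports viable cell number. Cells: human lymphoblastoid line, 2500 per well, 5 hr preincubation, 24 hr compound exposure at 37 C. AC50 is derived from qHTS concentration-response data using the standard Hill model.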
# [7] = Cell Viability - LYMP2-025 (AID 976); details: LYMP2-025 lymphoblastoid cell viability; activity change, negative = cytotoxicity: at 92.2 µM (top of the series); also: potency is read from the fitted curve at half-maximal effect
# Method in brief: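 CellTiter-Glo luminescence (cellular ATP) after 24 h compound exposure at 37 C; LYMP2-025 human lymphoblastoid cells, 2500/well, complete medium. Tetraoctylammonium bromide positive control. AC50 by Hill equation fit of qHTS concentration-response.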
# [8] = Cell Viability - LYMP2-008 (AID 980); details: LYMP2-008 lymphoblastoid cell viability, qHTS; also: potency is read from the fitted curve at half-maximal effect; nearly all actives have a fitted effect of over 60% in size
# Method in brief: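 Luminescent ATP read-out (CellTiter-Glo, 30 min RT) after 24 hr compound exposure at 37 C of human lymphoblastoid cells in complete medium. Decrease in ATP taken as cytotoxicity; AC50 derived by standard Hill fit of qHTS concentration-response data.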
# [9] = Cell Viability - LYMP2-024 (AID 988); details: LYMP2-024 lymphoblastoid cell viability; activity change, negative = cytotoxicity: at 92.2 µM (top of the series); also: potency is read from the fitted curve at half-maximal effect; nearly all actives have a fitted effect of over 60% in size
# Method in brief: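 ATP-based luminescence (CellTiter-Glo, 30 min RT) after 24 h compound exposure at 37 C of 2500 lymphoblastoid cells/well; decrease in ATP taken as cytotoxicity. qHTS concentration-response fitted to standard Hill equation for AC50.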
# [10] = qHTS Assay for Identification of Small Molecule Inducers of Hypoxia Response (AID 2120; active = well fitted curve in the direction sought with a large enough effect in the signal ratio, with a control signal flat, not every such curve was filed as active; inconclusive = small, poorly fitted or top-dose-only effect, or a change in a side signal; inactive = no such curve, though single readings can be large or run the other way; the % refers to the signal ratio; also: potency is read from the fitted curve at half-maximal effect); details: hypoxia response reporter cells, beta-lactamase ratio readout; activation: at 104 µM (top of the series)
# Method in brief: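 Read-out: CCF4 FRET emission ratio 460nm/530nm (excitation 405nm), converted to %Activity, with AC50 fitted across a compound titration. ME-180 cells carried an HRE-driven beta-lactamase reporter; compound exposure 17 h, 37 degrees C.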
# [11] = molecular target: Estrogen receptor (Homo sapiens) (UniProt P03372); assay: qHTS assay for small molecule antagonists of estrogen receptor alpha signaling (AID 588513; active = well fitted curve in the direction sought with a large enough effect in the signal ratio, with a control signal flat, not every such curve was filed as active; inconclusive = small, poorly fitted or top-dose-only effect, or effect the other way, or a change in a side signal; inactive = no such curve, though single readings can be large or run the other way; the % refers to the signal ratio; also: potency is read from the fitted curve at half-maximal effect); details: ER-alpha-UAS-bla HEK293, beta-lactamase ratio, antagonist mode; activity, negative = inhibition: at 76.9 µM (top of the series) unless noted
# Method in brief: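 ER-alpha-UAS-bla GripTite HEK 293 cells in 2% charcoal/dextran-treated FBS medium; compounds titrated (1:2, duplicate), then stimulated with 0.5 nM 17-beta-estradiol for 18 h at 37C. CCF4 beta-lactamase fluorescence; Hill-fit IC50 and efficacy.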
# [12] = molecular target: Estrogen receptor (Homo sapiens) (UniProt P03372); assay: qHTS assay for small molecule agonists of estrogen receptor alpha signaling (AID 588514; calls by dose curve; also: potency is read from the fitted curve at half-maximal effect; nearly all actives have a fitted effect of over 70% in size); details: ER-alpha-UAS-bla HEK293, beta-lactamase ratio, 18 h; activation: at 76.8 µM (top of the series), percent of full estradiol response, vehicle zero
# Method in brief: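 Read-out: CCF4 fluorescence from a beta-lactamase reporter in ER-alpha-UAS-bla HEK 293 cells after 18 hrs of compound exposure at 37 C. Normalized to 20 nM 17-beta-estradiol (100%) and DMSO (0%).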
# [13] = molecular target: Glucocorticoid receptor (Homo sapiens) (UniProt P04150); assay: qHTS assay for small molecule agonists of glucocorticoid receptor signaling (AID 588532; active = well fitted curve in the direction sought with a large enough effect in the signal ratio, with a control signal flat; inconclusive = small, poorly fitted or top-dose-only effect, or a change in a side signal; inactive = no such curve, though single readings can be large or run the other way; the % refers to the signal ratio; also: potency is read from the fitted curve at half-maximal effect); details: HeLa MMTV-bla, beta-lactamase ratio, agonist, 18 h; activation: active compounds read high, percent of dexamethasone control, DMSO zero
# Method in brief: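 Stimulation of a glucocorticoid response element-driven beta-lactamase gene was measured in HeLa cells. Responses were scaled between DMSO basal and 0.1 uM dexamethasone, then fitted for half-maximal stimulation.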
# [14] = molecular target: Peroxisome proliferator-activated receptor gamma (Homo sapiens) (UniProt P37231); assay: qHTS assay for small molecule agonists of peroxisome proliferator-activated receptor gamma signaling (AID 588536; active = well fitted curve in the direction sought with a large enough effect in the signal ratio, with a control signal flat, not every such curve was filed as active; inconclusive = small, poorly fitted or top-dose-only effect, or effect the other way, or a change in a side signal; inactive = no such curve, though single readings can be large or run the other way; the % refers to the signal ratio;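 also: 0% = DMSO basal wells and 100% = rosiglitazone at 2 µM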); details: HEK293 PPARg-UAS-bla, beta-lactamase ratio, 16 h; activation: at 76.7 µM (top of the series), percent of rosiglitazone response, DMSO as zero
# Method in brief: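 Compound treatment: 16 h, 37 C, HEK293 GeneBLAzer cells. Detection: CCF4, 2 h RT. Values: Hill-fit EC50, efficacy as % of 2 uM rosiglitazone.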
# [15] = molecular target: Peroxisome proliferator-activated receptor gamma (Homo sapiens) (UniProt P37231); assay: qHTS assay for small molecule antagonists of peroxisome proliferator-activated receptor gamma signaling (AID 588537; active = well fitted inhibition curve with a large enough effect in the signal ratio, with a control signal flat, not every such curve was filed as active; inconclusive = small, poorly fitted or top-dose-only effect, or effect the other way, or a change in a side signal; the % refers to the signal ratio;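 also: reporter cells co-stimulated with 50 nM rosiglitazone agonist during compound treatment; % of control where 0% means no effect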); details: HEK293 PPARg-UAS-bla, beta-lactamase ratio, antagonist mode; activity, negative = inhibition: at 76.8 µM (top of the series)
# Method in brief: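 HEK293 cells, PPAR-gamma-UAS-bla, 3000/well. Pre-incubation 6-6.5 h, 37 C. Compound titration with rosiglitazone 50 nM final, 16 h. CCF4 dye, 2 h RT, dual-emission fluorescence.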
# [16] = molecular target: Vitamin D3 receptor (Homo sapiens) (UniProt P11473); assay: qHTS assay for small molecule agonists of vitamin D receptor signaling (AID 588543; calls by dose curve; also: potency is read from the fitted curve at half-maximal effect); details: HEK293T VDR-UAS-bla, beta-lactamase ratio, 16 h; activation: at 76.8 µM (top of the series)
# Method in brief: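 VDR-UAS-bla HEK293T cells, 2000/well, 2% charcoal-stripped FBS; compound titration 16 h at 37 C; CCF4 beta-lactamase ratio read. Normalized to 50 nM 1-alpha,25-dihydroxyvitamin D3 (100%) and DMSO; Hill fit gives EC50, efficacy.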
# [17] = molecular target: Retinoic acid receptor RXR-alpha (Homo sapiens) (UniProt P19793); assay: qHTS assay for small molecule agonists of retinoid X receptor alpha signaling (AID 588544; calls by dose curve; also: potency is read from the fitted curve at half-maximal effect); details: HEK293T RXRa-UAS-bla, beta-lactamase reporter, 18 h; activation: at 76.7 µM (top of the series) unless noted
# [18] = molecular target: Retinoic acid receptor RXR-alpha (Homo sapiens) (UniProt P19793); assay: qHTS assay for small molecule antagonists of retinoid X receptor alpha signaling (AID 588546; active = well fitted inhibition curve with a large enough effect in the signal ratio, with a control signal flat, not every such curve was filed as active; inconclusive = small, poorly fitted or top-dose-only effect, or effect the other way, or a change in a side signal; inactive = no such curve, though single readings can be large or run the other way; the % refers to the signal ratio; also: potency is read from the fitted curve at half-maximal effect); details: HEK293T RXRa-UAS-bla, beta-lactamase ratio, antagonist mode
# Method in brief: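 Beta-lactamase reporter inhibition, read as CCF4 fluorescence ratio (ex 405, em 460/530 nm) after 2 h at RT. HEK293T UAS-bla cells, 2500/well, were stimulated with 9-cis-RA at 500 or 100 nM final alongside test compound for 18 h at 37 C.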
# [19] = qHTS assay to identify small molecules that stimulate interleukin-8 (IL-8) secretion (AID 651758; active = well fitted activation curve with a large enough effect in the signal ratio; inconclusive = small, poorly fitted or top-dose-only effect, or effect the other way, or a change in a side signal; the % refers to the signal ratio; also: potency is read from the fitted curve at half-maximal effect); details: HTRF ratio (665/615); activation: at 92.2 µM (top of the series)
# Method in brief: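 Quantitative HTS in THP-1 monocytic cells at 2000 cells per well, with 16 hrs compound incubation at 37 C. IL-8 in the medium was then quantified by HTRF immunoassay, read after 1-3 hrs at room temperature.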
# [20] = qHTS assay for small molecule agonists of the antioxidant response element (ARE) signaling pathway measured by Nrf2-dependant transcriptional activity (AID 720636; active = well fitted curve in the direction sought with a large enough effect in the repeat runs; inconclusive = weak or mixed curves; inactive = no such curve, though single readings can be large; an effect the other way counts as inactive or inconclusive; also: % of control where 0% means no effect)
# Method in brief: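 ARE-luc HepG2 cells carrying an Nrf2-responsive luciferase reporter, in medium with 1% dialyzed FBS, exposed to compound for 16 hr at 37 C, 5% CO2. Luminescence read 30 min after ONE-Glo addition.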
# [21] = qHTS assay for small molecule antagonists of the retinoid-related orphan receptor gamma (ROR-gamma) signaling pathway - cell viability counter screen (AID 720652; active = well fitted curve in the direction sought with a large enough effect in the repeat runs; inconclusive = weak or mixed curves; inactive = no such curve, though single readings can be large; an effect the other way counts as inactive or inconclusive;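 also: potency is read from the fitted curve at half-maximal effect; compound exposure lasted 16 hr before ATP read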)
# Method in brief: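 CHO RORE-LUC/TET-ROR line, 1,000 cells/well, 37 C 5% CO2 5 hr; cpd or DMSO + doxycycline induction, 16 hr. CellTiter-Glo, 30 min RT, luminescence = ATP content.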
# [22] = qHTS assay for cell viability of HEK293 cells (AID 743288); details: ATP luminescence (CellTiter-Glo), 18 h; max response: active compounds read low; also: potency is read from the fitted curve at half-maximal effect; nearly all actives have a fitted effect of over 50% in size
# Method in brief: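 Steps: plate 2,000 parental HEK293 cells per well; incubate ≥5 h, 37 C; add compounds in DMSO; incubate 18 h, 37 C; add CellTiter-Glo; wait 30 min at room temperature; read luminescence.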
smiles,measurement,setting,value
CCCCCCCC[N+](CCCCCCCC)(CCCCCCCC)CCCCCCCC,Potency,[1],active: 7.94 µM
same,Potency,[2],active: 7.94 µM
same,Potency,[3],active: 3.98 µM
same,Potency,[4],active: 6.31 µM
same,Potency,[5],active: 7.94 µM
same,Potency,[6],active: 7.94 µM
same,Potency,[7],active: 12.6 µM
same,Potency,[8],active: 3.98 µM
same,Potency,[9],active: 3.98 µM
same,Potency,[10],"inconclusive: 15.8 µM [side channel, falling, full curve]"
same,Potency,[11],"inconclusive: 31.6 µM [falling, single point]"
same,Potency,[12],"inconclusive: 7.08 µM [side channel, rising, full curve]"
same,Potency,[13],"inconclusive: 20 µM [side channel, falling, full curve, poor fit]"
same,activation,[14],inconclusive: 38.6%
same,"activity, negative = inhibition",[15],inconclusive: -47.2%
same,Potency,[16],"inconclusive: 50.1 µM [rising, single point]"
same,Potency,[17],"inconclusive: 7.94 µM [side channel, rising, partial curve]"
same,Potency,[18],"inconclusive: 3.98 µM [side channel, rising, partial curve, poor fit]"
same,Potency,[19],"inconclusive: 66.8 µM [inhibitor, single point]"
same,Potency,[20],inactive
same,Potency,[21],active: 9.44 µM
same,Potency,[22],active: 28.2 µM

# Two records picked at random from the list so far:
smiles,measurement,setting,value
CCCCCCCC[N+](CCCCCCCC)(CCCCCCCC)CCCCCCCC,Potency,[11],"inconclusive: 31.6 µM [falling, single point]"
same,Potency,[20],inactive
